# Experimental data taken from patent publication US20090297638A1.
# At least one structure is not confirmed: it was looked up by name or label, or the drawing left a doubt.
# Tested on: MCF-7 human breast carcinoma cells
# Experiment: 3H-Thymidine incorporation (proliferation) in MCF-7 cells
# Details: FIG. 6
smiles,measurement,value
"C[C@]12CC[C@@H]3c4ccc(O)cc4CC[C@H]3[C@@H]1CC[C@@H]2O [Herb E2, estradiol]",uptake of 3H-Thymidine in MCF-7 cells,greatly increases
